The source of these data is patent publication US5571793A (Bayer Aktiengesellschaft, priority 1993, dated 1996).

The data set in a line: general procedure: solution-phase peptide synthesis; bis-(2-oxo-3-oxazolidinyl)-phosphinic chloride, diisopropylethylamine.

As for “Bzl-L-MeLeu-D-Lac-L-MeLeu-D-PheLac-O^t Bu”, the step yield (coupling step) was found to be 80%.
Substance “tert.-Butyl-N-methyl-L-phenylalanyl-D-lactyl-N-methyl-D-phenylalanyl-D-lactate” registered a step yield (late stage modification step) of 82%.
